This passage reports binding results from paper PMC9653400.

Amino acid sequences for entries named in this document (tags omitted). Residues count along the entry.
UniProt P42224: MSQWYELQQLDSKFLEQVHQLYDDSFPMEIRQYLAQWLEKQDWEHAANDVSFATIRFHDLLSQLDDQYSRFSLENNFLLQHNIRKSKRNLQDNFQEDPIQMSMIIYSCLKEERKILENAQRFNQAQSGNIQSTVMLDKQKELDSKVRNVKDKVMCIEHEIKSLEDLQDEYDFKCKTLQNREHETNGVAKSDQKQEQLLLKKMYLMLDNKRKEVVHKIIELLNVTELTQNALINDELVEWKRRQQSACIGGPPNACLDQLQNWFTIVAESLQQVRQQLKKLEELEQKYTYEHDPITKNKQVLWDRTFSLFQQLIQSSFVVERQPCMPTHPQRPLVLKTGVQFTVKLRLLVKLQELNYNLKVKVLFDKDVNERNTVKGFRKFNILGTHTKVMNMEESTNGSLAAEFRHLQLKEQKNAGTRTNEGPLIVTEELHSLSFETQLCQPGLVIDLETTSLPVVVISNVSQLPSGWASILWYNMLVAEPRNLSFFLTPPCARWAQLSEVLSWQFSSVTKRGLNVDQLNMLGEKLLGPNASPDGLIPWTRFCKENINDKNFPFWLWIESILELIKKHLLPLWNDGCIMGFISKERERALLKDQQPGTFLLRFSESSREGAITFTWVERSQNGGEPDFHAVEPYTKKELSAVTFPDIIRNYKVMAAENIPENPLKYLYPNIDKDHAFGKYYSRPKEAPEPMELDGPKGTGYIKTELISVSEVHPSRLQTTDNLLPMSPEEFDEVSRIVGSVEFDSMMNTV
UniProt Q9Y6N7, residues 26-1651: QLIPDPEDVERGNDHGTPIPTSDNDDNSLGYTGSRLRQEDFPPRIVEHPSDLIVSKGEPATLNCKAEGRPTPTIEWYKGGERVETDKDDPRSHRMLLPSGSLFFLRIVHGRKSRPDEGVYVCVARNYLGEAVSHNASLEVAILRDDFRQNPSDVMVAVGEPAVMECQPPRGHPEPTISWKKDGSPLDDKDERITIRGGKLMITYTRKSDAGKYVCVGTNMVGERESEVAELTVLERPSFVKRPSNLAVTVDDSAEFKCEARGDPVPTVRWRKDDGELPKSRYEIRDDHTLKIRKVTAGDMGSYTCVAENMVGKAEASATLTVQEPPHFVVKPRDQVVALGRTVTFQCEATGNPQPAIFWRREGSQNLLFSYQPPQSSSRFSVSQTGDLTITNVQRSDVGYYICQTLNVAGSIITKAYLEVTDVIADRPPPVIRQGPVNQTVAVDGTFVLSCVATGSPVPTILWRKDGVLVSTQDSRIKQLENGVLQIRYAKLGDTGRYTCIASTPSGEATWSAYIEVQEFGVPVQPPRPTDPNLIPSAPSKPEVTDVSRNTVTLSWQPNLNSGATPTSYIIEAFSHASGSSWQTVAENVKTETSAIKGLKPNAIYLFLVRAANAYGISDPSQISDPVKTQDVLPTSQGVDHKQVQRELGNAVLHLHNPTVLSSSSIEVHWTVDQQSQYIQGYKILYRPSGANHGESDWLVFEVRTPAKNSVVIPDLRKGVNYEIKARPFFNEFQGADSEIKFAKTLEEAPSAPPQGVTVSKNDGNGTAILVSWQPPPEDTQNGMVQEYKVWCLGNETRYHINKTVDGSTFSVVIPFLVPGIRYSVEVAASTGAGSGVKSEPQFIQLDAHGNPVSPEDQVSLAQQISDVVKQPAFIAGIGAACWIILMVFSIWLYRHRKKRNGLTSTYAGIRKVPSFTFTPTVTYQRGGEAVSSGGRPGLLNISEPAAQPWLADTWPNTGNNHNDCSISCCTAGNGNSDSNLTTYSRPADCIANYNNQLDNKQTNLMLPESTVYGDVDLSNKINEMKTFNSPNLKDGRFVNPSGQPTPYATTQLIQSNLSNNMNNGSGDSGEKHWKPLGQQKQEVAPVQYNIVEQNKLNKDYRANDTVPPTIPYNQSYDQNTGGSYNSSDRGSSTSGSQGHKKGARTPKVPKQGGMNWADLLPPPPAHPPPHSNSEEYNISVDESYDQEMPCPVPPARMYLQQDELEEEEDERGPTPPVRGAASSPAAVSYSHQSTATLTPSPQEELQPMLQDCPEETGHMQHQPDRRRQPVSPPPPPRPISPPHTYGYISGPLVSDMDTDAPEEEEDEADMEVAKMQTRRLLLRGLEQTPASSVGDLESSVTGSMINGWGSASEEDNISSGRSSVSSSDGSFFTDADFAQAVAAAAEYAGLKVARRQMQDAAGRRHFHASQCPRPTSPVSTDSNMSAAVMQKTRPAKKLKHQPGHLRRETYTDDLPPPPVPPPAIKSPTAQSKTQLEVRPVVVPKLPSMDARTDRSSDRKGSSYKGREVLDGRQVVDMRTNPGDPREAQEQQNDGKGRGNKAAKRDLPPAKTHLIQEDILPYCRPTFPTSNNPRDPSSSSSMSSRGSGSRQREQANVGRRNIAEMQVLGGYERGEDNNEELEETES
UniProt Q8IY21: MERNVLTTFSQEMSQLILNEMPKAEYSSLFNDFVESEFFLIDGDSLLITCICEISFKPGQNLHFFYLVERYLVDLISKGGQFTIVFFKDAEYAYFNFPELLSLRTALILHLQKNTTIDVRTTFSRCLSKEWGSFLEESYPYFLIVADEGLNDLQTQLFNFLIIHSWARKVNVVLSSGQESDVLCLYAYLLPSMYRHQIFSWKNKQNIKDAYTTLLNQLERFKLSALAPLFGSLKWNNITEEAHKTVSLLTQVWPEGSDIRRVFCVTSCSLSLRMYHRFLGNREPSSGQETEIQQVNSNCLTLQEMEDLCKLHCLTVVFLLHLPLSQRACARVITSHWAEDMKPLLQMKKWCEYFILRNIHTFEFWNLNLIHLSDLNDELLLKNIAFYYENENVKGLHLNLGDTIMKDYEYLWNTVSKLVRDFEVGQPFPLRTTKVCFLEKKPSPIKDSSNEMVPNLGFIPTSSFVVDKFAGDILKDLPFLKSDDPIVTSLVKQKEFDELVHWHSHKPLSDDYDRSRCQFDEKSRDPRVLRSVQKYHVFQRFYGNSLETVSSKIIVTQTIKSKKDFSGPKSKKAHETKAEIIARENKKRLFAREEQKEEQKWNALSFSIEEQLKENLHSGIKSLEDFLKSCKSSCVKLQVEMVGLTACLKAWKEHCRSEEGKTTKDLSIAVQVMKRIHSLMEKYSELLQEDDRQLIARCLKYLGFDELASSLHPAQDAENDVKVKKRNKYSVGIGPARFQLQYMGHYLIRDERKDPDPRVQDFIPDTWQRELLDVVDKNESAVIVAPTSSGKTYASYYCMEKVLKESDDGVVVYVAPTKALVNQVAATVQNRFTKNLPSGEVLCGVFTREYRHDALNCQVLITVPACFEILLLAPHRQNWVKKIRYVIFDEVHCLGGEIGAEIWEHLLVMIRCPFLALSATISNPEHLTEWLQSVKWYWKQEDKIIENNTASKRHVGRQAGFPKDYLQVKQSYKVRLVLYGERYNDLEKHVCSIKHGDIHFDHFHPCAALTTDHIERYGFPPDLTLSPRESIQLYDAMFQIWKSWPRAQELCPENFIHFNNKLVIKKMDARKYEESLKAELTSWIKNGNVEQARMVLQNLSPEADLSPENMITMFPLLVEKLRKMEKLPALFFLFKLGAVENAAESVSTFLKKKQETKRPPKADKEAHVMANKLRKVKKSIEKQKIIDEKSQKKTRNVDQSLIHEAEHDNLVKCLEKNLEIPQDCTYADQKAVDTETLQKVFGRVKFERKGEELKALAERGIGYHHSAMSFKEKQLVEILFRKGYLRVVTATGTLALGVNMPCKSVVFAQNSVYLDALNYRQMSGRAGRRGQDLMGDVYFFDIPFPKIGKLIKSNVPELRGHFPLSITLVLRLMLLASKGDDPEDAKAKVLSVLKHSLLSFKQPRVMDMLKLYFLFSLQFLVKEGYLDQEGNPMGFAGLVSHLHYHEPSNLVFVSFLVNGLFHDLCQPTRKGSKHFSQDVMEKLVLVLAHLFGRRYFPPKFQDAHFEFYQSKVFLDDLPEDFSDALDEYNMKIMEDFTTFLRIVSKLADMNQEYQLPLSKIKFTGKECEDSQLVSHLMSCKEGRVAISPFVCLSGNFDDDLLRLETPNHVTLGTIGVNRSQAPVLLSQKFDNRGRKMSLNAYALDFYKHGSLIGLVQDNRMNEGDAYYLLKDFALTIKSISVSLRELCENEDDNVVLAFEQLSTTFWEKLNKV

Results are given in words; binding and its absence hold for the method and conditions named. Binding seen in cells or lysates may run through a third protein. Some results given as binding are weak or reduced against the parent protein; the word gives no strength.

Assay [1] has as its target T1, USP18 (human (endogenous in Flo-1)) (UniProt Q9UMW8).
T1 sequence: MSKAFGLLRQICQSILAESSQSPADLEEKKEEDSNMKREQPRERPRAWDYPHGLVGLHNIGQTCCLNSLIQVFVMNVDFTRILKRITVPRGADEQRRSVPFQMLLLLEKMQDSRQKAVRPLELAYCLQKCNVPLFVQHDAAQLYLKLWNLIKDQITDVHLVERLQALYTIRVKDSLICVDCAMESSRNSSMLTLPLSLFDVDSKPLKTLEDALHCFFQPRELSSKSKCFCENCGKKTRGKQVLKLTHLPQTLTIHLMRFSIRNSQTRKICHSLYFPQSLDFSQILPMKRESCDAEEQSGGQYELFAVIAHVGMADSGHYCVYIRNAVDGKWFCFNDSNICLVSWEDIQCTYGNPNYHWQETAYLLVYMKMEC
The assay is described as follows: cross-linking; in-situ DSS cross-linking (0.5 mM, 5 min, 37 °C, in PBS) of untreated Flo-1 cells (no IFNα); LC-MS/MS, SIM-XL.

Assay [2] concerns the target STAT1 (human (endogenous in Flo-1)) (UniProt P42224). The assay is described as above.
Assay [3] deals with T1, USP18 (human (endogenous in Flo-1)). The assay is described as follows: cross-linking; in-situ DSS cross-linking (0.5 mM, 5 min, 37 °C, in PBS) of Flo-1 cells treated with 10 ng/ml IFNα14 for 24 h (untreated cells run beside them); tryptic cross-linked peptides by LC-MS/MS, identified with SIM-XL (K-K, K-S, K-N-terminus).
The target of assay [4] is STAT1 (human (endogenous in Flo-1)) (UniProt P42224). Described as above.
The target of assay [5] is T2, LRCH4 (human (endogenous in Flo-1)) (UniProt O75427).
T2 sequence: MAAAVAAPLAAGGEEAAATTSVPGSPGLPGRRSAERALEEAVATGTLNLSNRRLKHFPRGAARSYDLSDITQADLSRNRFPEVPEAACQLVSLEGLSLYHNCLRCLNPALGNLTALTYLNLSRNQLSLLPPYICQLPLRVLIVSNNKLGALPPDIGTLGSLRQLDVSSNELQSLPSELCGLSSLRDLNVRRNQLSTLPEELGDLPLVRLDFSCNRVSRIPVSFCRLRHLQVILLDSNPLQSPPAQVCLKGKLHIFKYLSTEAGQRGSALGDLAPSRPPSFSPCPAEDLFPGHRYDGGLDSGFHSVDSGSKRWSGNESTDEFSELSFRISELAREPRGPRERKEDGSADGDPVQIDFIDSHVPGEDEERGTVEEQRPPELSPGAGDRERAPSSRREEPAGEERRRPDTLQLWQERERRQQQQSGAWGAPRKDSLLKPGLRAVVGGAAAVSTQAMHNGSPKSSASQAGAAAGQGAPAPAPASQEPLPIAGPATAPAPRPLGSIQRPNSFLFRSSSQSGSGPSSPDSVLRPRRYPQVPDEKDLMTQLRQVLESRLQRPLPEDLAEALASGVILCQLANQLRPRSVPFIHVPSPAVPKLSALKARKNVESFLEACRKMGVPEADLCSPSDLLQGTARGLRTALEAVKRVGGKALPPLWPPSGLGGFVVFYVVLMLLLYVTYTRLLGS
The description is as above.

For assay [6], the target named is T3, MX1 (human (endogenous in Flo-1)) (UniProt P20591).
T3 sequence: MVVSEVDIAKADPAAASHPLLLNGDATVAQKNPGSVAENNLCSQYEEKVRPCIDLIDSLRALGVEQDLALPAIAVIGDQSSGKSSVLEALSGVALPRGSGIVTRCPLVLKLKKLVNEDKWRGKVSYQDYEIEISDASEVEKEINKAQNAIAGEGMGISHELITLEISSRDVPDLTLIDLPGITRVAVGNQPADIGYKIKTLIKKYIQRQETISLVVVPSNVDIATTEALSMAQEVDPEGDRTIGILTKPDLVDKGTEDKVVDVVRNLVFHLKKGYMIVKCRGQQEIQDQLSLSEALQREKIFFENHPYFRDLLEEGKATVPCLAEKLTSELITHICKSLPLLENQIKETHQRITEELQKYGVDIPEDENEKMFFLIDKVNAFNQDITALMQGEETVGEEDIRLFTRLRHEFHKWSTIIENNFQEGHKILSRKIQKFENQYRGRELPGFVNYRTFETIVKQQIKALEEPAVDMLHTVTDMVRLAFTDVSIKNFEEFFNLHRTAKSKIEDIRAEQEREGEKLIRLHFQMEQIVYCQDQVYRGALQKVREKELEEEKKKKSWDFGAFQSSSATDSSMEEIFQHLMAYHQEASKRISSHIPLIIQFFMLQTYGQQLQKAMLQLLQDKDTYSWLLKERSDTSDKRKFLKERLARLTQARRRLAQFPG
The description is as above.

The target in assay [7] is ROBO1 (human (endogenous in Flo-1)) (UniProt Q9Y6N7). Description: cross-linking; in-situ DSS cross-linking (0.5 mM, 5 min, 37 °C, in PBS) of untreated Flo-1 cells (no IFNα); LC-MS/MS, SIM-XL.
Assay [8] shares this target. The assay is described as follows: cross-linking; in-situ DSS cross-linking (0.5 mM, 5 min, 37 °C, in PBS) of Flo-1 cells treated with 10 ng/ml IFNα14 for 24 h (untreated cells run beside them); tryptic cross-linked peptides by LC-MS/MS, identified with SIM-XL (K-K, K-S, K-N-terminus).
Assay [9] has as its target T1, USP18 (human (endogenous in Flo-1)). The description is as above. This is another data set of the same source.
For assay [10], the target named is STAT1 (human (endogenous in Flo-1)) (UniProt P42224). The description is as above. The source holds these as a separate data set.
In assay [11] the target is DDX60 (human (endogenous in Flo-1)) (UniProt Q8IY21). Described as above.

For the molecule ROBO1 (from UniProt Q9Y6N7 26-1651), the binding entry in assay [1] is “no binding (condition: untreated cells (without IFNα))”; in assay [2], “no binding (condition: untreated cells (without IFNα))”; in assay [3] it was “binds”; in assay [4] it was “binds”.
For MDN1 (from UniProt Q9NU22 1-5596), the binding result in [5] is reported as “binds”.

B1: OAS1 (protein, UniProt P00973 1-400)
chain: MMDLRNTPAKSLDKFIEDYLLPDTCFRMQINHAIDIICGFLKERCFRGSSYPVCVSKVVKGGSSGKGTTLRGRSDADLVVFLSPLTTFQDQLNRRGEFIQEIRRQLEACQRERAFSVKFEVQAPRWGNPRALSFVLSSLQLGEGVEFDVLPAFDALGQLTGGYKPNPQIYVKLIEECTDLQKEGEFSTCFTELQRDFLKQRPTKLKSLIRLVKHWYQNCKKKLGKLPPQYALELLTVYAWERGSMKTHFNTAQGFRTVLELVINYQQLCIYWTKYYDFKNPIIEKYLRRQLTKPRPVILDPADPTGNLGGGDPKGWRQLAQEAEAWLNYPCFKNWDGSPVSSWILLAESNSADDETDDPRRYQKYGYIGTHEYPHFSHRPSTLQAASTPQAEEDWTCTIL
In the case of B1, the binding entry in assay [6] is recorded as “binds”.

B2: OAS3 (protein, UniProt Q9Y6K5 1-1087)
chain: MDLYSTPAAALDRFVARRLQPRKEFVEKARRALGALAAALRERGGRLGAAAPRVLKTVKGGSSGRGTALKGGCDSELVIFLDCFKSYVDQRARRAEILSEMRASLESWWQNPVPGLRLTFPEQSVPGALQFRLTSVDLEDWMDVSLVPAFNVLGQAGSGVKPKPQVYSTLLNSGCQGGEHAACFTELRRNFVNIRPAKLKNLILLVKHWYHQVCLQGLWKETLPPVYALELLTIFAWEQGCKKDAFSLAEGLRTVLGLIQQHQHLCVFWTVNYGFEDPAVGQFLQRQLKRPRPVILDPADPTWDLGNGAAWHWDLLAQEAASCYDHPCFLRGMGDPVQSWKGPGLPRAGCSGLGHPIQLDPNQKTPENSKSLNAVYPRAGSKPPSCPAPGPTGAASIVPSVPGMALDLSQIPTKELDRFIQDHLKPSPQFQEQVKKAIDIILRCLHENCVHKASRVSKGGSFGRGTDLRDGCDVELIIFLNCFTDYKDQGPRRAEILDEMRAQLESWWQDQVPSLSLQFPEQNVPEALQFQLVSTALKSWTDVSLLPAFDAVGQLSSGTKPNPQVYSRLLTSGCQEGEHKACFAELRRNFMNIRPVKLKNLILLVKHWYRQVAAQNKGKGPAPASLPPAYALELLTIFAWEQGCRQDCFNMAQGFRTVLGLVQQHQQLCVYWTVNYSTEDPAMRMHLLGQLRKPRPLVLDPADPTWNVGHGSWELLAQEAAALGMQACFLSRDGTSVQPWDVMPALLYQTPAGDLDKFISEFLQPNRQFLAQVNKAVDTICSFLKENCFRNSPIKVIKVVKGGSSAKGTALRGRSDADLVVFLSCFSQFTEQGNKRAEIISEIRAQLEACQQERQFEVKFEVSKWENPRVLSFSLTSQTMLDQSVDFDVLPAFDALGQLVSGSRPSSQVYVDLIHSYSNAGEYSTCFTELQRDFIISRPTKLKSLIRLVKHWYQQCTKISKGRGSLPPQHGLELLTVYAWEQGGKDSQFNMAEGFRTVLELVTQYRQLCIYWTINYNAKDKTVGDFLKQQLQKPRPIILDPADPTGNLGHNARWDLLAKEAAACTSALCCMGRNGIPIQPWPVKAAV
As for B2, the binding entry in [7] was “no binding (condition: untreated cells (without IFNα))”; in assay [1], “no binding (condition: untreated cells (without IFNα))”; in assay [2], “no binding (condition: untreated cells (without IFNα))”; in [8] it was “binds”; in assay [9], “binds”; in assay [10], “binds”.

B3: IFIT3 (protein, UniProt O14879 1-490)
chain: MSEVTKNSLEKILPQLKCHFTWNLFKEDSVSRDLEDRVCNQIEFLNTEFKATMYNLLAYIKHLDGNNEAALECLRQAEELIQQEHADQAEIRSLVTWGNYAWVYYHLGRLSDAQIYVDKVKQTCKKFSNPYSIEYSELDCEEGWTQLKCGRNERAKVCFEKALEEKPNNPEFSSGLAIAMYHLDNHPEKQFSTDVLKQAIELSPDNQYVKVLLGLKLQKMNKEAEGEQFVEEALEKSPCQTDVLRSAAKFYRRKGDLDKAIELFQRVLESTPNNGYLYHQIGCCYKAKVRQMQNTGESEASGNKEMIEALKQYAMDYSNKALEKGLNPLNAYSDLAEFLETECYQTPFNKEVPDAEKQQSHQRYCNLQKYNGKSEDTAVQHGLEGLSISKKSTDKEEIKDQPQNVSENLLPQNAPNYWYLQGLIHKQNGDLLQAAKCYEKELGRLLRDAPSGIGSIFLSASELEDGSEEMGQGAVSSSPRELLSNSEQLN
For the molecule B3, in [11], the binding result is reported as “binds”.
